Taken from: PubChem BioAssay AID1508588 (Peter MacCallum Cancer Centre, 2020)
Screen: 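Which gene losses make BRAF-mutant melanoma cells more responsive to vemurafenib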 (primary screen). System: human WM266.4 melanoma cells (BRAF V600 mutant). Knock-down reagent: siRNA pool against human genes, 40 nM. Time to read-out: 96 h from transfection to read-out. Treatment: vemurafenib 300 nM (about IC25), added 48 h after transfection, for 48 h; comparison arm got DMSO vehicle only. Read-out: 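Ratios to non-targeting siRNA for cell gain, counted as DAPI nuclei after minus before drug and averaged over two replicates, and for absorbance-read medium lactate per cell; both binned into fold-change classes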. Reading the numbers: cell gain with vemurafenib: higher = more cell gain than with non-targeting siRNA; lactate per cell with vemurafenib: higher = more lactate made per cell. Hit rule: 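a knock-down counts as enhancing when its fold-change classes with vehicle and with vemurafenib, taken together, show a stronger drug effect on cell gain or lactate per cell; exact class pairs not stated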. Meaning of the calls: active = enhances vemurafenib effect; inactive = no enhancement seen.
In all, the deposit lists about 18,000 reagents; below is a part drawn at random. Over the whole deposit, 790 (4.4%) are marked active. 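Calls rest on a combination of fold-change classes in drug and vehicle arms, not all shown here.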 Entries without a mark were called inactive. No sequences are given here.

The first 2 entries, ahead of the listing:
| target | cell gain with vemurafenib | lactate per cell with vemurafenib |
| --- | --- | --- |
| CAMSAP2 | 0.11 | 1.09 |
| ATP6V1D | 0.74 | 0.36 |

The list itself, from the first entry:
| target | cell gain with vemurafenib | lactate per cell with vemurafenib |
| --- | --- | --- |
| CAMSAP2 | 0.11 | 1.09 |
| ATP6V1D | 0.74 | 0.36 |
| RBM39 | 0.71 | 1.33 |
| AOAH | 0.35 | 0.84 |
| BPY2 | 0.9 | 0.56 |
| PLCD3 | 0.36 | 1.04 |
| NUDT8 | 0.4 | 0.42 |
| HPCAL4 | 0.2 | 1.58 |
| COX7B | 0.64 | 1.25 |
| AMN1 | 0.67 | 1.4 |
| ADCY8 | 0.18 | 0.71 |
| EIF6 | 0.34 | 1.96 |
| SLC46A1 | 1.28 | 0.7 |
| FPR2 | 0.75 | 1.46 |
| AMELX | 0.5 | 0.73 |
| POC5 | 0.23 | 2.57 |
| RCCD1 | 1.13 | 0.48 |
| DDX59 | 0.65 | 0.8 |
| NDUFC2 | 0.6 | 1.4 |
| SMAGP | 0.63 | 1.01 |
| ITFG1 | 0.5 | 1.05 |
| IFT20 | 0.72 | 0.62 |
| NINJ2 | 0.7 | 0.83 |
| IFNG | 0.66 | 0.49 |
| GNG4 | 0.74 | 0.68 |
| PSKH2 | 0.57 | 0.32 |
| NFXL1 | 0.71 | 1.17 |
| ZMAT1 | 0.35 | 1.8 |
| C3AR1 | 0.93 | 0.96 |
| PLPP2 | 0.15 | 1.68 |
| ASB15 | 0.27 | 0.64 |
| CD276 | 0.75 | 1.48 |
| OR4C16 | 0.26 | 1.12 |
| NT5DC2 | 0.7 | 1.43 |
| CD109 | 0.73 | 0.52 |
| TIAM2 | 0.41 | 1.2 |
| CMKLR1 | 0.48 | 1.06 |
| CYTH3 | 0.43 | 1.8 |
| HLA-K | 0.59 | 1.31 |
| ACKR3 | 0.38 | 2.1 |
| CPEB4 | 0.45 | 0.88 |
| ECHS1 | 0.77 | 0.9 |
| HSPA2 | 0.35 | 0.56 |
| ACOX1 | 0.85 (active) | 0.66 |
| MPPE1 | 0.48 | 1.38 |
| RP9 | 0.78 | 0.75 |
| OR6V1 | 0.77 | 0.57 |
| ACAD11 | 0.6 | 0.88 |
| SLC6A19 | 0.72 | 0.73 |
| MNDA | 0.69 | 1.56 |
| OR8D4 | 0.68 | 1.33 |
| CDK6 | 0.47 | 0.77 |
| AKR1E2 | 0.46 | 0.95 |
| RAB8B | 0.81 | 0.88 |
| ZNF214 | 0.89 | 0.97 |
| RNF34 | 0.32 | 0.8 |
| ZNF780A | 0.85 | 1.1 |
| CCDC167 | 0.52 | 0.88 |
| CAPNS2 | 0.69 | 0.42 |
| TRIM33 | 0.98 | 0.84 |
| SLC6A15 | 0.52 | 0.88 |
| MSL2 | 0.04 | 1.64 |
| NDUFA12 | 0.62 | 1.01 |
| GTF3C3 | 0.51 | 1.46 |
| APOBEC2 | 0.69 | 0.86 |
| SLC22A14 | 0.44 (active) | 0.48 |
| CD4 | 0.59 | 0.87 |
| PAGE5 | 1.12 | 1.66 |
| ZNF598 | 0.67 | 0.62 |
| TMEM42 | 1.04 | 1.06 |
| SIX3 | 0.5 (active) | 0.46 |
| ZNF623 | 0.47 | 0.98 |
| PDCL2 | 0.75 | 0.59 |
| CLLU1 | 0.63 | 0.66 |
| IQCF1 | 1.28 | 0.62 |
| ZC3H12B | 0.29 | 0.64 |
| NME4 | 0.83 | 0.57 |
| TMTC2 | 0.01 | 0.55 |
| CUL9 | 1.12 | 0.9 |
| DPY30 | 0.81 | 1.34 |
| SHISA5 | 0.64 | 0.3 |
| ACOT12 | 0.56 | 0.65 |
| USP54 | 1.08 | 0.77 |
| RPS15 | -0.01 | 0.3 |
